Our source for the AC50 values is PubChem BioAssay AID493014 (National Center for Advancing Translational Sciences (NCATS), 2011).

The nature of this assay: qHTS Assay to Find Inhibitors of Chronic Active B-Cell Receptor Signaling. The following applies: ABC-DLBCL IkBa-CBG/CBR reporter, luminescence ratio (green luciferase fused to IkBa over red control in TMD8 lymphoma cells), 4 h. The method, boiled down: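 Cell line TMD8 (human ABC DLBCL), stably expressing tet-inducible CBG68-IkBa fusion and CBR; IMDM/0.5% FBS; cpd up to 46 uM; dox induction, 4 h, 37C/5% CO2; dual luminescence; green/red ratio; MG132 control.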
A general note: qHTS replaces the single test concentration by a dilution series.

The mark [1] stands for this setting: measured here: CBR red luminescence, cell number.
Where [2] appears, read: measured here: IkBa-CBG green luminescence.

This is one part of the list. These are further read-outs of the screen, such as a control signal, another cell line or another target. No call is given for them. Most of these compounds were active or inconclusive in the main read-out, so they are no random draw. The note in brackets gives the kind of curve behind each potency; many fits are weak.

The term AC50 denotes the concentration at which the activity in the assay is half-maximal.

Turning to `[O-]/[N+](=C\C=C\c1ccccc1)c1ccccc1`, the half-maximal activity concentration (AC50) under setting [1] was 10 µM [falling, partial curve].
The same measure, in the same setting: under `COc1ccccc1NC(=O)COc1coc(CN2CCN(c3ccccc3)CC2)cc1=O` stands 0.82 µM [falling, partial curve, poor fit]; under `COc1ccc2cc3cc(C(=O)Nc4ccc5c(c4)OCCO5)oc3nc2c1`, 15.8 µM [rising, partial curve, poor fit]; under `CCN(CC)S(=O)(=O)c1ccc(N=Nc2c(C)[nH]n(C(N)=S)c2=O)cc1`, 29.1 µM [rising, single point].
Same read-out and setting: the result for `Cc1cccc(NC(=S)N(CCN2CCOCC2)Cc2cc3cc4c(cc3[nH]c2=O)OCCO4)c1` reads 35.5 µM [falling, single point]; that for `COc1ccc(C=NCC2OCCc3ccccc32)cc1OC` (stereo not drawn), 0.82 µM [rising, full curve, poor fit]; that for `CCOC(=O)N1CCN(Cc2nc3c(c(=O)n(C)c(=O)n3C)n2Cc2ccccc2)CC1`, 0.411 µM [rising, full curve, poor fit].
The same measure, in the same setting: under `CCOc1ccc(NC(=O)c2cc(SC)ccc2Cl)cc1` stands 2.91 µM [falling, partial curve]; under `Cn1cc(S(=O)(=O)N2CCc3ccccc32)cc1C(=O)Nc1ccc(Cl)cc1`, 1.12 µM [falling, full curve, poor fit].
As for `CCCCN(CCCC)CC(O)CN1C(=O)NC(C)(C)C1=O` (stereo not drawn), the concentration at half-maximal activity (AC50) under setting [1] is 1.46 µM [rising, full curve].
`COc1cccc(-c2c(C(=O)N/N=C/c3ccc(C)o3)nnn2-c2nonc2N)c1`: under setting [1], the AC50 was 11.2 µM [falling, single point].
As to `COc1ccc(-n2c(=O)c(CCC(=O)NCCc3ccccc3F)nc3ccccc32)cc1`, under setting [1], the concentration at half-maximal activity (AC50) is 16.4 µM [rising, single point].
As to `Cc1cc(Cl)c(OCCCn2ccnc2)c(Br)c1`, the half-maximal activity concentration (AC50) under setting [1] is 11.6 µM [rising, partial curve, poor fit] and the AC50 under setting [2] is 29.1 µM [falling, single point].
Turning to `C=CCC[C@@H](Cc1ccc(F)cc1)C(=O)OC[C@@H](C)NC(=O)[C@H](CC=C)CC(=O)N(CCO)Cc1ccccc1`, under setting [1], the concentration at half-maximal activity (AC50) is 14.6 µM [falling, partial curve].
Consider `CCCC(=O)Nc1sc(Cc2ccccc2)c(C)c1C(N)=O`, for which the AC50 under setting [1] is 22.4 µM [falling, partial curve, poor fit] and the AC50 under setting [2] is 1.12 µM [rising, full curve].
With `COc1cc(SC#N)ccc1N=Cc1c(C)[nH]n(-c2ccc(C)c(C)c2)c1=O`, the AC50 under setting [1] is 16.4 µM [rising, partial curve, poor fit].
On the same count and under the same terms, under `N/N=C(/Cc1nc2ccccc2[nH]1)c1ccc([N+](=O)[O-])cc1` stands 11.2 µM [falling, partial curve, poor fit]; under `Cc1onc(-c2ccccc2)c1-c1n[nH]c(=S)n1-c1ccc(C(=O)O)cc1`, 20.6 µM [falling, single point]; under `Cc1ccc(C2=NN(C(=O)CSc3nc4ncc(Cl)cc4[nH]3)C(c3ccco3)C2)cc1` (stereo not drawn), 20 µM [falling, partial curve, poor fit].
Still for that read-out and setting: the result for `COc1cc2c(cc1OC)C(c1cc3ccccc3oc1=O)=NC(C)(C)C2` reads 12.6 µM [falling, single point]; that for `COc1ccc(NC(=O)CSc2nnc(Cc3ccccc3)c(=O)n2N)cc1OC`, 5.17 µM [falling, full curve, poor fit].
For `O=C(NNC(=O)C1CC=CCC1C(=O)O)c1ccc(Cl)cc1` (stereo not drawn), the AC50 under setting [1] was 10 µM [falling, partial curve, poor fit].
Regarding `O=[N+]([O-])c1cccc(CNCc2ccccc2)c1`, the AC50 under setting [1] was 1.78 µM [rising, single point].
As to `O=C1c2ccccc2C(Nc2ccc3nc(-c4cccnc4)[nH]c3c2)N1Cc1ccco1` (stereo not drawn), the AC50 under setting [1] was 0.103 µM [falling, full curve, poor fit].
In the case of `O=C(O)c1ccccc1-c1nc2ccccc2[nH]1`, the half-maximal activity concentration (AC50) under setting [1] is 20 µM [falling, partial curve, poor fit].
In the case of `O=C(Nc1cc(Cl)cc(Cl)c1)c1cc(S(=O)(=O)NC2CCCC2)ccc1F`, the half-maximal activity concentration (AC50) under setting [1] was 14.1 µM [falling, partial curve, poor fit].
In the case of `COc1ccc(OC)c(S(=O)(=O)Nc2ccc(CC(=O)O)cc2)c1`, under setting [1], the concentration at half-maximal activity (AC50) was 29.1 µM [rising, partial curve, poor fit].
As to `COCCN1CN=C(Nc2nc(C)c3ccc(C)cc3n2)NC1`, the concentration at half-maximal activity (AC50) under setting [1] was 7.94 µM [falling, partial curve, poor fit].
As to `O=C(COc1ccccc1Cl)NC(=O)NC1CCCCC1`, the AC50 under setting [1] was 16.4 µM [falling, partial curve].
On to `Nc1ccc2nc(-c3cccc(-c4nc5ccc(N)cc5[nH]4)c3)[nH]c2c1`, for which the concentration at half-maximal activity (AC50) under setting [1] is 4.47 µM [falling, single point].
Still for that read-out and setting: under `CSCC[C@H](NC(=O)[C@H](Cc1ccccc1)n1c(=O)[nH]c2ccccc2c1=O)C(=O)N1CCC(C(=O)O)CC1` stands 6.31 µM [falling, partial curve, poor fit]; under `CSc1cccc(NC(=S)NC(=O)CCc2ccccc2)c1`, 15.8 µM [rising, single point].
Still for that read-out and setting: under `Cn1ccc(C(=O)N/N=C/c2ccccc2[N+](=O)[O-])n1` stands 15.8 µM [falling, partial curve].
Still for that read-out and setting: under `COc1ccc(-n2c(C)c(C)c3c(N)ncnc32)cc1` stands 28.2 µM [falling, single point]; under `Cn1c(SCC(=O)c2ccccc2)nc2cccnc21`, 6.51 µM [rising, partial curve, poor fit].
For `CC1(C)CC[C@]2(C(=O)O)CC[C@]3(C)C(=CC[C@@H]4[C@@]5(C)CC[C@H](O[C@@H]6O[C@H](C(=O)O)[C@@H](O)[C@H](O[C@@H]7OC[C@H](O)[C@H](O)[C@H]7O)[C@H]6O)C(C)(C)[C@@H]5CC[C@]43C)[C@@H]2C1`, the AC50 under setting [1] is 29.1 µM [falling, single point].
Consider `Cc1csc(NC(=O)Nc2ccc(Cl)cc2)n1`, for which, under setting [1], the AC50 is 8.91 µM [falling, partial curve, poor fit].
Still for that read-out and setting: under `O=C(CCCN1C(=O)/C(=C/c2cccc(Br)c2)SC1=S)Nc1ccccn1` stands 2.06 µM [falling, full curve]; under `COc1cccc(-c2csc3ncnc(Sc4nnnn4C)c23)c1`, 6.51 µM [falling, partial curve]; under `O=C1C(=O)N(Cc2ccco2)C(c2cccs2)/C1=C(\O)c1cccc([N+](=O)[O-])c1` (stereo not drawn), 7.08 µM [rising, partial curve, poor fit].
On the same count and under the same terms, under `CCN(CC)CCOC(=O)c1ccc(NC(=O)/C=C/c2cccs2)cc1` stands 7.31 µM [falling, partial curve]; under `O=c1c(/C=N/O)coc2ccc3ccccc3c12`, 35.5 µM [falling, single point]; under `O=[N+]([O-])c1ccc2nc(NCCCO)nc(-c3ccccc3)c2c1`, 10.3 µM [falling, partial curve].
On the same count and under the same terms, under `O=C(NCC(=O)N(c1cnc2ccccc2c1)C(C(=O)NC1CCCC1)c1ccncc1)c1ccco1` (stereo not drawn) stands 7.31 µM [rising, partial curve, poor fit].
As for `COc1ccc(C(=O)NC(=S)Nc2ccc(NC(=O)c3ccco3)cc2)cc1[N+](=O)[O-]`, the AC50 under setting [1] was 13 µM [rising, partial curve].
Still for that read-out and setting: under `COc1ccc(CCN2C(=O)c3[nH]nc(-c4ccccc4O)c3C2c2cccc(O)c2)cc1OC` (stereo not drawn) stands 35.5 µM [falling, single point]; under `COCn1c(COc2ccc3ccccc3c2)nc2ccccc21`, 0.411 µM [rising, full curve].
On to `COc1ccc(COc2ccc3c(C)cc(=O)oc3c2)cc1`, for which, under setting [1], the AC50 is 6.31 µM [rising, partial curve, poor fit].
On to `NS(=O)(=O)c1ccc(NC(=S)NCc2cccs2)cc1`, for which the AC50 under setting [1] was 20 µM [falling, single point].
Same read-out and setting: the result for `COc1ccccc1NC(=O)c1cc2ccc(O)cc2o/c1=N\O` reads 5.01 µM [falling, partial curve, poor fit].
Still for that read-out and setting: the result for `CCc1nnc(NC(=O)CN2CCN(C3CCCCC3)CC2)s1` reads 6.51 µM [rising, partial curve, poor fit]; that for `CC(C)CN(C(=O)COC(=O)CNC(=O)c1ccccc1)c1c(N)n(Cc2ccccc2)c(=O)[nH]c1=O`, 10.3 µM [rising, partial curve, poor fit]; that for `O=C(O)CCCn1c(=S)[nH]c2c(sc3ccc([N+](=O)[O-])cc32)c1=O`, 7.08 µM [falling, partial curve, poor fit].
On to `c1ccc(-c2nnc3n2NC(c2ccc4c(c2)OCO4)S3)cc1` (stereo not drawn), for which the AC50 under setting [2] was 6.51 µM [rising, partial curve, poor fit].
Consider `COc1cc(N=Cc2c(O)[nH]c3ccccc23)cc(OC)c1OC`, for which the AC50 under setting [1] was 7.31 µM [falling, partial curve].
Still for that read-out and setting: under `CCc1c(C)sc(NC(=S)N2CCN(CC)CC2)c1C(=O)OC` stands 6.31 µM [rising, single point].
`CC(=O)Nc1ccc(C#Cc2ccc(NC(C)=O)cc2)cc1`: the AC50 under setting [1] is 14.1 µM [rising, single point].
On to `COc1cc(C(=O)OCC(C)=O)cc(NC(=O)c2ccco2)c1OC`, for which, under setting [1], the AC50 is 20 µM [rising, single point].
Still for that read-out and setting: under `COc1cccc(-c2noc(CCC(=O)NCC3CCCO3)n2)c1` (stereo not drawn) stands 10 µM [rising, partial curve, poor fit]; under `COc1ccc(OC)c(S(=O)(=O)Nc2ccc(O)c3ccccc23)c1`, 9.2 µM [falling, partial curve, poor fit]; under `O=[N+]([O-])c1cc(Cl)cc(/C=N/NC(=S)Nc2cc(S(=O)(=O)N3CCOCC3)ccc2Cl)c1O`, 14.1 µM [falling, partial curve, poor fit].
